Measurements reported in PubChem BioAssay AID1259254 (NCATS, 2017).

- Purpose: 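Finding genes that stop cells copying their DNA twice in one cycle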 (primary screen)
- System: human HCT116 colorectal cancer cells
- Reagents: single siRNA against human genes
- Time to read-out: 3 days
- Measurement: 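Nuclei stained with Hoechst and imaged; cell-cycle phase assigned by DNA content; G2 share scaled per plate, non-targeting siRNA 0%, GMNN siRNA 100%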
- Direction: G2 robust z-score: higher = more G2 cells, more excess DNA replication
- Call rule: 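Active siRNAs have a G2 robust z of 5 or more median absolute deviations over the median, which in these data means about 38% or higher of GMNN control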
Here is one part, drawn at random, of about 59,000 reagents tested. About 1,550 of them (2.6%) were called active. 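G2 share is only a proxy for re-replication; each gene was hit by three separate siRNAs, and active genes were retested.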 The numbers tell different reagents against one gene apart. Further read-outs or replicates are left out here. The record does not give: the amount of reagent.

G2 robust z-score, by gene knocked down and reagent
ITFG2 (GeneID 55846): #1 2.74 inactive; #2 0.605 inactive; #3 -0.859 inactive
IL1A (GeneID 3552): #1 3.75 inactive; #2 -0.564 inactive; #3 0.276 inactive
KCNMB3 (GeneID 27094): #1 -1.04 inactive; #2 -0.613 inactive; #3 -0.417 inactive
DCTPP1 (GeneID 79077): #1 -0.81 inactive; #2 -0.965 inactive; #3 0.181 inactive
RNF222 (GeneID 643904): #1 0.582 inactive; #2 -0.0073 inactive; #3 1.27 inactive
XYLT1 (GeneID 64131): #1 0.103 inactive; #2 -1.26 inactive; #3 -0.777 inactive

Looked up above:
Under “G2 robust z-score”, KCNMB3 (GeneID 27094) #1 reads -1.04
Under “Call”, DCTPP1 (GeneID 79077) #1 shows inactive
For “G2 robust z-score”, ITFG2 (GeneID 55846) #3 has -0.859
KCNMB3 (GeneID 27094) #3, Call → inactive

The list goes on.
G2 robust z-score, by gene knocked down and reagent
PTPRM (GeneID 5797): #1 -1.17 inactive; #2 -0.546 inactive; #3 -1.31 inactive
RAB41 (GeneID 347517): #1 0.347 inactive; #2 0.64 inactive; #3 -0.793 inactive
SNX15 (GeneID 29907): #1 -0.66 inactive; #2 -0.564 inactive; #3 3.25 inactive
ATP5MJ (GeneID 9556): #1 2.12 inactive; #2 -0.202 inactive; #3 -0.809 inactive
